Results taken from publication PMC8310357.

Target: Erylysin A (Pleurotus eryngii) (UniProt D0FZZ2)
Assay: cryo-electron microscopy imaging of proteins on vesicles (no reconstruction); LUVs 0.5 mg/mL of CPE/POPC/cholesterol 5/47.5/47.5 (mol/mol/mol) in vesicle buffer (20 mM Tris, pH 7.5, 140 mM NaCl, 1 mM EDTA); vesicles incubated with the aegerolysin 30 min at room temperature, then PlyB added for 30 min; OlyA6 3.64 uM with PlyB 1.67 uM, or EryA 25 uM with PlyB 2 uM; oligomerisation required the presence of membranes; both purified

B1: Δ48PlyB (pleurotolysin B) (protein, UniProt Q5W9E8 49-523)
chain: SQAGDTLNDVIQDPTRRNKLINDNNLLKGIIMGRDGPVPSSRELIVRPDTLRAIINNRATIETTTMEAEFTETLMESNYNSASVKVSAPFITANSEYSESSSFKNTETEKSMYTSSRYLFPQGRIDFTTPDSGFDDVIKLSPQFTSGVQAALAKATGTEKREALQNLFQEYGHVFRTKVHIGGVLSAHTMETFSRSENETEVKQDVKAGLEGAVKGWGGGATAGHGNTQGTITTSQNRKLNVKYIVNGGDYTKIQNTEEWVASTNQSEHWRVIEVTEVTAVADLLPQPIRGQVKDLLKPLLGKWVDVEKVPGLESLPVSVYRPKGAIPAGWFWLGDTADASKALLVKPTLPARSGRNPALTSLHQGSGMTEQPFVDLPQYQYLSTYFGSFAHDTPPGSTLRGLRPDHVLPGRYEMHGDTISTAVYVTRPVDVPFPEDECFDLKSLVRVKLPGSGNPPKPRSALKKSMVLFDSGEK
In the case of B1, the binding is reported as “binds”.

Results are given in words; binding and its absence hold for the method and conditions named. A result given as binding can be weak or reduced; the word gives no strength.
